## Results from one PubChem assay

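Malaria parasite (P. falciparum) lines kept in red blood cells; parasite DNA is measured by SYBR Green fluorescence after lysis, 72 h after compound addition.
Each compound was titrated across a series from about 0.000037 to 29 µM.
The number is the fitted AC50, the concentration giving a half-maximal change in signal; a lower value means higher potency, whether the curve shows a decrease or an increase.
Calls follow the curve class and fit quality: every row here is inconclusive, covering signal-raising curves and weak, poorly fitted, partial or highest-dose-only inhibition curves.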

Values are in nM.
All entries here are filed as inconclusive.
Only part of the assay is shown, chiefly results filed as inconclusive.
A potency from a partial, single-point or poor curve is only a rough figure.

Compound | tested on / at | potency (nM) | curve as filed
COc1cc(/C=C/C(=O)CC(=O)/C=C/c2ccc(O)c(OC)c2)ccc1O | CP191 | 17782 | inhibitor, single point
COc1cc(/C=C/C(=O)CC(=O)/C=C/c2ccc(O)c(OC)c2)ccc1O | CP217 | 15848 | inhibitor, single point
COc1cc(/C=C/C(=O)CC(=O)/C=C/c2ccc(O)c(OC)c2)ccc1O | CP291 | 15101 | inhibitor, single point
COc1cc(/C=C/C(=O)CC(=O)/C=C/c2ccc(O)c(OC)c2)ccc1O | CP329 | 19011 | inhibitor, single point
COc1cc(/C=C/C(=O)CC(=O)/C=C/c2ccc(O)c(OC)c2)ccc1O | CP211 | 15101 | inhibitor, single point
COc1cc(/C=C/C(=O)CC(=O)/C=C/c2ccc(O)c(OC)c2)ccc1O | CP335 | 19011 | inhibitor, single point
COc1cc(/C=C/C(=O)CC(=O)/C=C/c2ccc(O)c(OC)c2)ccc1O | P93_24 | 8912 | inhibitor, single point
COc1cc(/C=C/C(=O)CC(=O)/C=C/c2ccc(O)c(OC)c2)ccc1O | CP265 | 15848 | inhibitor, single point
COc1cc(/C=C/C(=O)CC(=O)/C=C/c2ccc(O)c(OC)c2)ccc1O | ATS189 | 11220 | inhibitor, single point
COc1cc(/C=C/C(=O)CC(=O)/C=C/c2ccc(O)c(OC)c2)ccc1O | CP203 | 16944 | inhibitor, single point
COc1cc(/C=C/C(=O)CC(=O)/C=C/c2ccc(O)c(OC)c2)ccc1O | AS120 | 10000 | inhibitor, single point
COc1cc(/C=C/C(=O)CC(=O)/C=C/c2ccc(O)c(OC)c2)ccc1O | TAB113 | 14125 | inhibitor, single point
COc1cc(/C=C/C(=O)CC(=O)/C=C/c2ccc(O)c(OC)c2)ccc1O | CP268 | 19011 | inhibitor, single point
COc1cc(/C=C/C(=O)CC(=O)/C=C/c2ccc(O)c(OC)c2)ccc1O | ATS95 | 10000 | inhibitor, single point
COc1cc(/C=C/C(=O)CC(=O)/C=C/c2ccc(O)c(OC)c2)ccc1O | TAB165 | 14125 | inhibitor, single point
COc1cc(/C=C/C(=O)CC(=O)/C=C/c2ccc(O)c(OC)c2)ccc1O | CP238 | 11220 | inhibitor, single point
COc1cc(/C=C/C(=O)CC(=O)/C=C/c2ccc(O)c(OC)c2)ccc1O | CP185 | 10000 | inhibitor, single point
COc1cc(/C=C/C(=O)CC(=O)/C=C/c2ccc(O)c(OC)c2)ccc1O | DFO2036 | 17782 | inhibitor, single point
COc1cc(/C=C/C(=O)CC(=O)/C=C/c2ccc(O)c(OC)c2)ccc1O | CP269 | 15101 | inhibitor, single point
COc1cc(/C=C/C(=O)CC(=O)/C=C/c2ccc(O)c(OC)c2)ccc1O | CP266 | 19011 | inhibitor, single point
COc1cc(/C=C/C(=O)CC(=O)/C=C/c2ccc(O)c(OC)c2)ccc1O | CP256 | 12589 | inhibitor, single point
COc1cc(/C=C/C(=O)CC(=O)/C=C/c2ccc(O)c(OC)c2)ccc1O | CP201 | 16944 | inhibitor, single point
OCCOCCN1CCN(C2=Nc3ccccc3Sc3ccccc32)CC1 | ICS | 17782 | inhibitor, single point
OCCOCCN1CCN(C2=Nc3ccccc3Sc3ccccc32)CC1 | CP237 | 12589 | inhibitor, partial curve
OCCOCCN1CCN(C2=Nc3ccccc3Sc3ccccc32)CC1 | CP266 | 95.3 | inhibitor, full curve, poor fit
OCCOCCN1CCN(C2=Nc3ccccc3Sc3ccccc32)CC1 | Dd2 | 14125 | inhibitor, partial curve, poor fit
OCCOCCN1CCN(C2=Nc3ccccc3Sc3ccccc32)CC1 | PC26 | 8492 | inhibitor, partial curve, poor fit
OCCOCCN1CCN(C2=Nc3ccccc3Sc3ccccc32)CC1 | DIV14 | 13459 | inhibitor, single point
CC1=C(C)C(=O)C(C(CCCCCC(=O)O)c2ccccc2)=C(C)C1=O (centres unmarked) | ATS189 | 8912 | inhibitor, single point
CC1=C(C)C(=O)C(C(CCCCCC(=O)O)c2ccccc2)=C(C)C1=O (centres unmarked) | CP211 | 21331 | inhibitor, partial curve, poor fit
CC1=C(C)C(=O)C(C(CCCCCC(=O)O)c2ccccc2)=C(C)C1=O (centres unmarked) | CP215 | 9528 | inhibitor, partial curve
CC1=C(C)C(=O)C(C(CCCCCC(=O)O)c2ccccc2)=C(C)C1=O (centres unmarked) | CP315 | 15101 | inhibitor, single point
CC1=C(C)C(=O)C(C(CCCCCC(=O)O)c2ccccc2)=C(C)C1=O (centres unmarked) | TAB165 | 12589 | inhibitor, partial curve
CC1=C(C)C(=O)C(C(CCCCCC(=O)O)c2ccccc2)=C(C)C1=O (centres unmarked) | DIV17 | 7569 | inhibitor, partial curve
CC1=C(C)C(=O)C(C(CCCCCC(=O)O)c2ccccc2)=C(C)C1=O (centres unmarked) | DIV30 | 19011 | inhibitor, single point
CC1=C(C)C(=O)C(C(CCCCCC(=O)O)c2ccccc2)=C(C)C1=O (centres unmarked) | GB4 | 11995 | inhibitor, partial curve
CC1=C(C)C(=O)C(C(CCCCCC(=O)O)c2ccccc2)=C(C)C1=O (centres unmarked) | AS120 | 11220 | inhibitor, single point
CC1=C(C)C(=O)C(C(CCCCCC(=O)O)c2ccccc2)=C(C)C1=O (centres unmarked) | 3D7 | 12589 | inhibitor, single point
CC1=C(C)C(=O)C(C(CCCCCC(=O)O)c2ccccc2)=C(C)C1=O (centres unmarked) | CP297 | 19011 | inhibitor, single point
CC1=C(C)C(=O)C(C(CCCCCC(=O)O)c2ccccc2)=C(C)C1=O (centres unmarked) | CP252 | 17782 | inhibitor, single point
CC1=C(C)C(=O)C(C(CCCCCC(=O)O)c2ccccc2)=C(C)C1=O (centres unmarked) | CP250 | 10000 | inhibitor, single point
CC1=C(C)C(=O)C(C(CCCCCC(=O)O)c2ccccc2)=C(C)C1=O (centres unmarked) | C2A | 12589 | inhibitor, single point
CC1=C(C)C(=O)C(C(CCCCCC(=O)O)c2ccccc2)=C(C)C1=O (centres unmarked) | N140 | 11220 | inhibitor, single point
CC1=C(C)C(=O)C(C(CCCCCC(=O)O)c2ccccc2)=C(C)C1=O (centres unmarked) | PC26 | 7569 | inhibitor, single point
CC1=C(C)C(=O)C(C(CCCCCC(=O)O)c2ccccc2)=C(C)C1=O (centres unmarked) | CP217 | 11220 | inhibitor, single point

The results are deposited in PubChem (AID504749; NCATS, 2011).